Results from doi:10.1101/2021.02.09.430422.
Read-outs that look alike come from different tables or passages of the source. These are yes or no findings as the source states them, for the method shown. Some results given as binding are weak or reduced against the parent protein; the word gives no strength. For some assays here: Where a sequence is shown, tags or fusion partners need not be part of it.

Tests used:
[1] = target: T1, Smc6 (Twin-Strep tag removed, as in the octamer for XL-MS) (S. cerevisiae) (UniProt Q12749); assay: cross-linking
T1 sequence: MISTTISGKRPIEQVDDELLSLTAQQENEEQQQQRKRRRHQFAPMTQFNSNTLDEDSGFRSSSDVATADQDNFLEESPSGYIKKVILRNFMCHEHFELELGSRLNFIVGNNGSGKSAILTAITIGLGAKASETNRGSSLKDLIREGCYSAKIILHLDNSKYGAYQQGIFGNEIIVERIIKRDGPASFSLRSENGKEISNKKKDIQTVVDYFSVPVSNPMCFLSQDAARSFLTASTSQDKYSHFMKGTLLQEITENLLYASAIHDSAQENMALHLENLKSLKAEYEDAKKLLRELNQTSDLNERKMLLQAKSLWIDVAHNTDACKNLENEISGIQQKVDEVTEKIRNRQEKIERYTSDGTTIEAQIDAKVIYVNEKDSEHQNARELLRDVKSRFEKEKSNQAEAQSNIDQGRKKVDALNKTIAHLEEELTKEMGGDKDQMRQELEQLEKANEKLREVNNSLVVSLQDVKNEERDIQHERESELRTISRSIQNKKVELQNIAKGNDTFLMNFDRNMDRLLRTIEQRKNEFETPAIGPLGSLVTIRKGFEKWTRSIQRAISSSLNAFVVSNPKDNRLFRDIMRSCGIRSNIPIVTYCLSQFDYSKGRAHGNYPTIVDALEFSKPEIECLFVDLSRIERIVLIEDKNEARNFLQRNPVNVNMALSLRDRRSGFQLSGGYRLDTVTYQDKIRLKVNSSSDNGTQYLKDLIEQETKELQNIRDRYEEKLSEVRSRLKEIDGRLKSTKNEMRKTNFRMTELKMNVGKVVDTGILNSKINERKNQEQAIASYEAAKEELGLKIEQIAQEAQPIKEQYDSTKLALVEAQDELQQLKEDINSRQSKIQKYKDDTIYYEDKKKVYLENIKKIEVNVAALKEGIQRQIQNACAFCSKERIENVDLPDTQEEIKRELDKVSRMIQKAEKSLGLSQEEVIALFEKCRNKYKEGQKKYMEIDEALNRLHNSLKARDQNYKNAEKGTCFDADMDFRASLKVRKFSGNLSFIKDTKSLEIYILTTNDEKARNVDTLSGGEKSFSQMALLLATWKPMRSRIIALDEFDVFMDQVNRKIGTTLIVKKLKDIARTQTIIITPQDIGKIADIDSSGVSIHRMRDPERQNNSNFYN

[2] = target: T1, Smc6 (Twin-Strep tag removed, as in the octamer for XL-MS) (S. cerevisiae); assay: cross-linking; remark: listed apart in the source
[3] = target: T2, Smc6-3C-Twin-Strep (S. cerevisiae) (UniProt Q12749); assay: co-purification after co-expression
T2 sequence: T1 sequence

Smc5 (S. cerevisiae) [4] = target: T3, Smc5 (S. cerevisiae) (UniProt Q08204); assay: cross-linking
T3 sequence: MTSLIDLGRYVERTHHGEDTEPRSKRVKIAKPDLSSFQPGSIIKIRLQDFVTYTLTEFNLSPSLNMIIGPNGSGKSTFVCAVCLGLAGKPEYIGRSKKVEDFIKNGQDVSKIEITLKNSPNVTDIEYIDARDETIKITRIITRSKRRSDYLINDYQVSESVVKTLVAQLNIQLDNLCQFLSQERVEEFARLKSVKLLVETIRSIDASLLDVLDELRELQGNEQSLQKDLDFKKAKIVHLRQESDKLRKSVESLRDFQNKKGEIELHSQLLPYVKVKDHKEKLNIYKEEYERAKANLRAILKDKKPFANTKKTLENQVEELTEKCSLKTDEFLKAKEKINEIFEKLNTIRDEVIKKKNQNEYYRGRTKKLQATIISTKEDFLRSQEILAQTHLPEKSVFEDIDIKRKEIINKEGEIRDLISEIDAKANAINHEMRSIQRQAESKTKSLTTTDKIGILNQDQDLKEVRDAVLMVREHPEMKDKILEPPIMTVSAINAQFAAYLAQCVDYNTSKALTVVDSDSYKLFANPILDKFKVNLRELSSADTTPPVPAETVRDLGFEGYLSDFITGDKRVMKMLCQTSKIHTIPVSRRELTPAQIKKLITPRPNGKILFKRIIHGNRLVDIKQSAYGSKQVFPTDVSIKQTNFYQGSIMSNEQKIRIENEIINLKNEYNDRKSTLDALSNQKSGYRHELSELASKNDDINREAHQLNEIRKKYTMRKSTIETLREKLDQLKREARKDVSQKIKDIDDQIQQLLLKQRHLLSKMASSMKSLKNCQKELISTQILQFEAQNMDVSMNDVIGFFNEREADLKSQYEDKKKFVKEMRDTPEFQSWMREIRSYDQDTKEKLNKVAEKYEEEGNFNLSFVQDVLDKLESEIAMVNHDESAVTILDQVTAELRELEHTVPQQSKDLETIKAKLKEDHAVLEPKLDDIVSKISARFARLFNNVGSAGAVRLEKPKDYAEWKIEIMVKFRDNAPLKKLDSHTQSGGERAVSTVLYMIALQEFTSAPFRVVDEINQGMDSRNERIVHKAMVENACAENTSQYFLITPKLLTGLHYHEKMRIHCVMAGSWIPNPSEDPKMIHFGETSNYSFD

Smc5 (S. cerevisiae) [5] = target: T3, Smc5 (S. cerevisiae); assay: cross-linking; remark: listed apart in the source

B1: Smc5 (protein, UniProt Q08204 1-1093)
chain: T3 sequence
binding [1]: binds | binding [2]: binds | binding [3]: binds

B2: Nse1 (protein, UniProt Q07913 1-336)
chain: MEVHEEQVSAPVTGDATAKYLLQYILSARGICHENALILALMRLETDASTLNTEWSIQQWVDKLNDYINAINVKLNLLGYKIIRINHGIGRNAVTLKAKQNFESFEDNTAIRAHNNDYAVLQSIVLPESNRFFVYVNLASTEETKLATRFNQNEIEFMKWAIEQFMISGETIVEGPALETSIIVKEVNRILVAATGDSNLAKWRKFSTFTVGSTNLFQFQELTATDIEDLLLRLCELKWFYRTQEGKFGIDLRCIAELEEYLTSMYNLNTCQNCHKLAIQGVRCGNESCREENEETGENSLSQIWHVDCFKHYITHVSKNCDRCGSSLITEGVYVI
binding [3]: binds

B3: Nse5-AviTag (Twin-Strep removed, as in the octamer for XL-MS) (protein, UniProt Q03718 1-556)
chain: MDGALINSVLYVSPRNGAHYFVELTEKHLLAFEMLNSMCLLENYDHVLLFLECQFGKSHNLAVIPFDIILVLFTLSTLSEYYKEPILRANDPYNTSRETLSRRALKLLQKYLAILKEFDSEQYNLYDLELLRCQFFLAIDTLTPKKQKWGFDRFRRTKSESGVTYRQNASVDPELDQAKTFKNPYRSYISCLEQRNTILGNRLLNLKLNEPGEFINMILWTLSNSLQESTPLFLSSHEIWMPLLEILIDLFSCRQDYFIQHEVAQNVSKSLFVQRLSESPLAVFFESLNTRNFANRFSEYVFLNCDYKLPSDNYATPVHPVYNGENTIVDTYIPTIKCSPLYKSQKSLALRRKLIGSCFKLLLRVPDGHRLITPRIVADDVIQGISRTLASFNDILQFKKFFMTENLSQESYFIPLLAEGTLSEILKDTQECVVILTLVENLSDGVSFCNEVIGLVKSKCFAFTEQCSQASYEEAVLNIEKCDVCLLVLLRYLLHLIGTEAILDAKEQLEMLHAIEKNDSGRRQWAKALNLGNDPPLLYPIVSQMFGVHDKSVIIE
binding [1]: binds | binding (Smc5 (S. cerevisiae) [4]): binds | binding [2]: binds | binding (Smc5 (S. cerevisiae) [5]): binds

B4: Nse2 (protein, UniProt P38632 1-267)
chain: MALNDNPIPKSVPLHPKSGKYFHNLHARDLSNIYQQCYKQIDETINQLVDSTSPSTIGIEEQVADITSTYKLLSTYESESNSFDEHIKDLKKNFKQSSDACPQIDLSTWDKYRTGELTAPKLSELYLNMPTPEPATMVNNTDTLKILKVLPYIWNDPTCVIPDLQNPADEDDLQIEGGKIELTCPITCKPYEAPLISRKCNHVFDRDGIQNYLQGYTTRDCPQAACSQVVSMRDFVRDPIMELRCKIAKMKESQEQDKRSSQAIDVL
binding [1]: binds | binding (Smc5 (S. cerevisiae) [4]): binds | binding [3]: binds

B5: Nse4 (protein, UniProt P43124 1-402)
chain: MSSTVISRKRRNSTVTEPDSSGETRKQKKSRSDEKSSSSKDGDPQLEFKVLQGYRDLESEMHKGRAQVTRTGDIGVAMDNLNAVDSLFNKVIGIKNNGLFAHDARAMVSISELAQISVRNLKFDDSRSMVNLENIVNSLKRYMLKEHFKLNNIAENRNDLTLAADEQSAADQQEESDGDIDRTPDDNHTDKATSSFKATSMRHSYLQQFSHYNEFSQFNWFRIGALYNTISKNAPITDHLMGPLSIEKKPRVLTQRRRNNDQVGEKITAEKITQHSLNSTQQETTPEQVKKCFKKLSKKLGPEGSINLFKFIIDPNSFSRSIENLFYTSFLIKEGKLLMEHDEEGLPTIKIKQSISHTDSRSKEIERQRRRAAHQNHIIFQMDMPTWRKLIKKYNITSPFLD
binding [1]: binds | binding (Smc5 (S. cerevisiae) [4]): binds | binding [3]: binds
